PubChem BioAssay AID1259308, NCATS – 2017
The deposit covers about 59,000 reagents; shown is a part drawn at random. About 1,510 of them (2.6%) were called active. 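Calls use total luciferase alone and ignore viability, so some active siRNAs may act by altering cell number.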 The numbers tell different reagents against one gene apart. Not all columns of the deposit are shown.

Test: 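Genes whose loss raises luciferase production in HEK293 cells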 (primary screen)
Cell system: human HEK293 embryonic kidney cells stably expressing firefly luciferase (HEK-CMV-Luc2-Hygro)
Reagent: single siRNA against human genes, 0.8 pmol siRNA per well
Time to read-out: 72 h
Measured: 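Luciferase light (ONE-Glo) measured on one replicate plate set and viability (CellTiter-Glo) on the other, scaled to a negative control siRNA, with robust z-scores and luciferase per cell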
Direction: total luciferase, z-score: higher = more reporter protein produced
Rule for the call: 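Active when the median/MAD z-score for overall luciferase is greater than 3; a gene was taken forward for validation with new siRNAs if at least two of its three siRNAs passed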
Meaning of the calls: active = raised luciferase; inactive = no rise

AP5M1 #1
- total luciferase, z-score: 3.47
- outcome: active

AP5M1 #2
- total luciferase, z-score: -0.755
- outcome: inactive

AP5M1 #3
- total luciferase, z-score: 0.938
- outcome: inactive

SPAG1 #1
- total luciferase, z-score: 2.63
- outcome: inactive

SPAG1 #2
- total luciferase, z-score: -0.177
- outcome: inactive

SPAG1 #3
- total luciferase, z-score: -0.914
- outcome: inactive

PRIM2 #1
- total luciferase, z-score: 0.443
- outcome: inactive

PRIM2 #2
- total luciferase, z-score: -1.58
- outcome: inactive

PRIM2 #3
- total luciferase, z-score: -0.543
- outcome: inactive

WNT6 #1
- total luciferase, z-score: -0.768
- outcome: inactive

WNT6 #2
- total luciferase, z-score: 0.159
- outcome: inactive

WNT6 #3
- total luciferase, z-score: -0.451
- outcome: inactive

GPR37 #1
- total luciferase, z-score: 0.176
- outcome: inactive

GPR37 #2
- total luciferase, z-score: 0.414
- outcome: inactive

GPR37 #3
- total luciferase, z-score: 0.254
- outcome: inactive

TMEM121 #1
- total luciferase, z-score: -0.0255
- outcome: inactive

TMEM121 #2
- total luciferase, z-score: -0.312
- outcome: inactive

TMEM121 #3
- total luciferase, z-score: 1.34
- outcome: inactive

MGC70870 #1
- total luciferase, z-score: 0.361
- outcome: inactive

MGC70870 #2
- total luciferase, z-score: -0.121
- outcome: inactive

MGC70870 #3
- total luciferase, z-score: 0.931
- outcome: inactive
